Laboratory results from patent US9115363B2, “Gene expression and eradication system in Helicobacter pylori” (priority 2011, dated 2015).
For at least one compound, name, drawing or mass did not settle the structure.

How the values were obtained:
[1] = system: Tet-ON mdaB::ptetR; urePtetO strains; experiment: In vivo induction of urePtetO by doxycycline, C57BL/6J infection model; parameters: species or system H. pylori
Method: Regulation of urePtetO to drive the expression of urease by dox was evaluated using a C57BL/6J infection model. Mice were orally challenged with one of several Tet-ON, mdaB::ptetR; urePtetO strains and supplemented with a range of dox concentrations that were within the tolerance of X47. Urease is known to be an essential gene required for colonization, and therefore Tet-ON urePtetO strains should not be able to colonize in the absence of the inducer. […] Infection of urePtetO strains is dependent on dox supplementation (FIG. 9F). Mice were supplemented with dox for two weeks after infection to establish successful colonization of mdaB:: ptetR4; urePtetOI. […] Infection by strain mdaB::ptetR4; urePtetOI could be maintained for at least 4 weeks with dox supplementation.
6-7 week old C57BL/6J female mice were orally gavaged once with 200 μL of 1×10^9 CFU/mL bacteria, that had been passaged on CBA plates containing 50 ng/mL ATc to induce expression of tetracycline responsive genes. Mice were supplemented with doxycycline in their drinking water containing 5% sucrose. Mice were sacrificed at indicated time points and stomachs were removed and homogenized in 1 mL BHI using a tissue lysing agent (Retch). Homogenates were serially diluted and plated out on H. pylori selective plates, (CBA containing 5% Horse blood, Dent, polymyxin B 2500 U/L or 0.2975 mg/L, nalidixic acid 10 mg/L and Bacitracin 100 mg/L). Colonies were counted to calculate bacteria load. Re-isolated clones were checked for tet responsive gene expression and sequenced when appropriate.

[2] = system: wild-type parent X47 strain; experiment: Tolerance of wild-type X47 to doxycycline during colonization of mice; type: in vivo, H. pylori; settings: C57BL/6J mice

`C[C@H]1c2cccc(O)c2C(=O)C2=C(O)[C@]3(O)C(=O)C(C(N)=O)=C(O)[C@@H](N(C)C)[C@@H]3[C@@H](O)[C@@H]21` [dox, doxycycline] was tested, and the “isolation of strain after withdrawal of dox supplement” value ([1]; mdaB:: ptetR4, urePtetOI, dox for two weeks, 7 days after withdrawal) was “could not be isolated”, the “re-isolation of strain after withdrawal of dox supplement” value ([1]; mdaB:: ptetR4, urePtetOI, dox for two weeks, one and three days after withdrawal) was “could be re-isolated” and the re-isolation of strain ([1]; strain mdaB:: ptetR4, urePtetO V, two weeks of infection, 5 μg/mL dox) was “could be re-isolated”. For the same molecule, the bacterial load ([2]; dox 100 μg/mL in drinking water, one week of infection) was “significantly reduced”, the isolation of bacteria ([2]; dox 1000 μg/mL in drinking water, one week of infection) was “could not be isolated” and the bacterial load ([2]; dox concentrations above 1 μg/mL, one week) was “decreased by two logs”.
